In all, about 53,000 sequences went through this assay and about 3,700 (7%) were called active.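 Rule for the calls: active = gene knockdowns whose robust z-score for IL-1 alpha signal is at least 2 or at most -2, so actives lie on both sides; inactive = the rest.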 The list shows a part of the results.

The nature of this assay: Components of the Cytosolic LPS Sensing Pathway: Gene Identification via Genome-wide siRNA Screen.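 Note: robust z of the log signal after scaling to non-targeting control siRNA wells of the plate.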 Particulars: RAW264.7 macrophages, IL-1a HTRF, actives lie on both sides, screened at 100 nM (by protocol), cells primed 5 h with Pam3CSK4 first. Summed up: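 Three distinct siRNAs per gene were tested singly at 100 nM in RAW264.7 macrophages. Following Pam3CSK4 priming and 24 hour LipidA transfection, IL-1a secretion was read by HTRF.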
In the case of GCGACUGGGAGAGAUAAGATT against Eogt, the z-score is inactive: -0.818.

With GCCACACAGUUUCAUCUCATT against Alg12, the z-score was inactive: -1.56.

GGCUGUCUUUGUUCCAGUATT against Tnfrsf10b: the z-score was inactive: 0.218.

Regarding GGAAUUUCUGAAUGACUUATT against Zwilch, the z-score was inactive: 0.0436.

Consider GGCAGCAAAAAGAAAAUCUTT against Slc22a30, for which the z-score was inactive: 0.52.

GGAAGGCACGUGAAUGGUGTT against AI606181: the z-score was inactive: 0.45.

Consider GGCAUUAUUAACAAGAUUGTT against Eif2b1, for which the z-score was inactive: 0.462.

In the case of GCUGUAUCACAAGAAGCCGTT against Ccdc97, the z-score is inactive: 0.361.

In the case of GGUUGAAAUAAGAACCAUATT against Efcab2, the z-score was inactive: -0.424.

On to CGUAUACUGUGAUUGAUAUTT against Lcn5, for which the z-score was inactive: -0.647.

Turning to GGUAGAGAGACUGUAAUUATT against Ppp2r1b, the z-score was inactive: -0.598.

As to GGCUGCUUAUUUCUGAAUCTT against Pcdha11, the z-score was inactive: -0.227.

As to CCUAGAGCCGUGUGCAUACTT against Plp2, the z-score is inactive: 0.891.

As for GCUGGACCUUCAUGUAAUATT against Pcsk1, the z-score was inactive: -0.234.

Turning to GGCCGAUCUCUAAACAUAGTT against Sugp2, the z-score is inactive: -0.759.

Turning to GGAAGAGGCAGAAGUCAUCTT against Bcl2l12, the z-score was inactive: 0.0791.

As to GGUGUUCUUGAGCUGUGAGTT against Igfbp7, the z-score was active: -2.32.

For GUAUUGGAAGCUCAUUUGATT against Pigf, the z-score was inactive: 0.266.

With GGAGAAGGGCCUGAAGUAUTT against Lsm5, the z-score was inactive: -1.77.

As for CCAAAUUAGCUUAUGUUCUTT against Sgo1, the z-score is inactive: -0.109.

Turning to GGAGAAUCUGAAGGACACCTT against Cd151, the z-score was inactive: -0.126.

GGUCUUUGUGUCCACCUACTT against Gpr162: the z-score was inactive: 0.669.

As to GCAAUUAGUAACUGAGAAUTT against Dpp10, the z-score was inactive: 0.0628.

Turning to GGAUCAACGAGGUAAAGUCTT against Itga8, the z-score is inactive: 0.101.

Take GAUGACUUUAUCCUCUUGGTT against Olfr1396: the z-score is inactive: -0.771.

Regarding GGUGGUUGGAGUACUCAAGTT against Capza1, the z-score was active: -2.53.

On to GCAAGAUCUGUGUAAAUGGTT against Gpx4, for which the z-score is inactive: 0.894.

Turning to GGUGUAAUUGGGAAAAUUCTT against Inpp5f, the z-score was inactive: -1.17.

With GGCUCUAAACAAAAUUCAGTT against Gtf2e2, the z-score is inactive: 0.407.

With GGACAGGAUGGAUGGAAGUTT against Ing5, the z-score is inactive: -0.697.

Turning to GGUGGUUGUGCAAUAUAGUTT against Atxn1, the z-score was inactive: 0.149.

CCAAGUGUGAUCUCCAUCATT against Gm5124: the z-score is inactive: -0.334.

Take GGAAUUGGAUGCCAUCAUCTT against Tnnc2: the z-score was inactive: 0.0937.

Regarding GGCCAUUUCCGUUUUAGGATT against Olfr319, the z-score is inactive: -1.69.

GGUGCAAGUUCGAACCAAGTT against Cdca8: the z-score is inactive: 0.255.

For the sequence GCCGGAAUCAGUGAAAGGCTT against Trafd1, the z-score is inactive: 1.82.

For the sequence CCCAGGGUGUCAAUCUAAATT against Cby1, the z-score is inactive: -0.381.

Turning to GGUACUCAUCCCUUCCUGATT against Mc1r, the z-score is inactive: -0.129.

Consider CCUACAGAGUACCCUGUCUTT against Gas2l2, for which the z-score is active: -2.56.

Turning to GCUGUAUUGUGCAAAUGGCTT against Prkci, the z-score is inactive: -0.511.

On to GGAACAUCUCUGAAUUAUGTT against Ndel1, for which the z-score was inactive: 0.335.

As to GGAGGUAUUUCAAAUUGCUTT against Appl1, the z-score is inactive: 0.0259.

For the sequence CCUCUAUGAGUGUAAACCATT against Crim1, the z-score was inactive: -0.927.

Turning to GCUAUGCACUUUGUGGACCTT against Zpbp2, the z-score is inactive: 0.138.

As for GGAGGAUACCUUCUUCUACTT against Mta3, the z-score was inactive: 0.354.

GCUGUCAGUCAAUACAAAATT against Ccdc33: the z-score was inactive: 1.04.

Regarding GGGCUUCAACACUGAGAAGTT against Arl4d, the z-score was inactive: -1.04.

In the case of GGCUCAGAAUUGAUCCUAUTT against Atxn3, the z-score was inactive: 1.51.

As for GGCUUCAACCGGAGAUUUATT against Pde8b, the z-score is inactive: 0.491.

With GCUUAUGCCAGUCUGUCAUTT against Hax1, the z-score is inactive: -0.206.

For the sequence GGAAGCUUCGAAAGUUUAUTT against Cmtm2b, the z-score is inactive: 0.755.

As for GCUCAUCGAGCCUGUACACTT against Med26, the z-score was inactive: -0.296.

With GGUCUACUGACUCAAAGUCTT against Mrps33, the z-score is active: 2.2.

For the sequence CCGGCUAAAUCACCGUGCUTT against Clpb, the z-score is inactive: -0.647.

Take CCACGUUAUCAGCUAUUACTT against Exoc7: the z-score is inactive: 0.468.

As to GGACUUUAAGCUCGACUUCTT against Ggct, the z-score was inactive: -0.84.

As for GGAAUUAUUCAGCAAGACUTT against Cdrt4, the z-score is inactive: -0.636.

For “GCAAAGUCAAGAGAAGUAUTT against A430033K04Rik”, the z-score is inactive: 0.49.

In the case of GGGACAACUUUGCACAGGATT against Gfap, the z-score is inactive: 0.166.

For GCAAGGUGACUCGAAGAAATT against Spry1, the z-score is inactive: -0.102.

On to GGGCUGAAGAUAAUGCAGATT against Pcna, for which the z-score is inactive: 0.167.

In the case of GGUCCAAAAAAGGUUCAAATT against Btbd3, the z-score was inactive: 0.164.

GGAUGGCAUGUCCUUCCAATT against Elf3: the z-score was active: 2.85.

GCAAGUAGAAACCCUUAAUTT against Scara5: the z-score is inactive: -0.0354.

GCUUUUCAUGGACACAUUCTT against Nsun4: the z-score is inactive: 1.48.

CCAGCAGUAAACUGGAAAUTT against Arhgap25: the z-score was inactive: -1.53.

With GCGGUACCUUCACUUGCAUTT against Lrfn1, the z-score is inactive: -0.509.

With GGGUUGUGCAAAUUGGGCUTT against Olfr570, the z-score was inactive: 0.974.

Take GGUGAACACAACCAAACCATT against Lima1: the z-score is inactive: -0.51.

As to GAGGGACUGUAAUGUUGACTT against Olfr560, the z-score is inactive: 0.0877.

For GCCAUCAACCAAAACAUCCTT against Gm5941, the z-score was inactive: 0.895.

Turning to GCUUGUGCAAAGAACAUGUTT against Itgad, the z-score is inactive: 0.766.

As for GGAAUUCAAUGACGUGUACTT against Mapk14, the z-score was inactive: 0.493.

For the sequence GGCUCAUUCGGACUAUAUGTT against Cadm1, the z-score is inactive: -1.51.

For GCGGGAAAUCACGAAGAUATT against Wdr31, the z-score is inactive: -1.18.

On to “CGAGUGAGUCACGUAUCAUTT against 4930544M13Rik”, for which the z-score was inactive: 0.583.

Turning to GGAUUCUUUGGUCUAUUUCTT against Pudp, the z-score was inactive: -0.308.

For the sequence GGUCACCACUCCAUAUUCUTT against Vsir, the z-score was inactive: -0.561.

On to GCUUCUACCCUUAAUGCCATT against Fastkd5, for which the z-score is inactive: -1.35.

As to GGUAGAAAACUAGCUAAUATT against Slc35e3, the z-score was inactive: 0.991.

On to GCUGGAAGUGAACAUCGAUTT against Gng8, for which the z-score is inactive: 1.11.

As for GGUGUUCAGGAGAUGAUGCTT against Cdt1, the z-score is inactive: 0.0123.

In the case of GGAAGACAUAGAAGAAAAGTT against Zdhhc12, the z-score is inactive: -0.926.

For GCUAACAUGUUGUCUUAAATT against Tspan12, the z-score is inactive: 0.644.

In the case of CCUGUUAGAACAUAAGGGCTT against Thy1, the z-score is inactive: 0.0968.

On to GGGCUAUUGCAUCUUUUAATT against Olfr711, for which the z-score is inactive: -0.0884.

With GGAUCCAUCCGUCUCUAAGTT against Rprd2, the z-score was inactive: 0.628.

As for CCGGUUUCAAAUUGCCACUTT against Psmb4, the z-score was active: -2.73.

Turning to GGACUGAGGUAUCAUUUACTT against Gtf2f2, the z-score is inactive: 0.953.

As to GCUCCUAGACAACAUCGUGTT against Ppp1r3b, the z-score is inactive: 1.81.

Consider CCCAUUUGCUCUGUGGAUCTT against Tha1, for which the z-score was inactive: 0.289.

Turning to GGAAGCUGAAGGUUUGCCATT against Wipi2, the z-score is inactive: -0.529.

For the sequence GGUAAGUCACCAUUAUACCTT against Pcdhb12, the z-score is inactive: 1.31.

Turning to GCCUUUCUUCUGUCAAUGATT against Olfr281, the z-score is active: 2.38.

In the case of GGAAGUGAUGAUAAGUCUATT against D6Wsu163e, the z-score is inactive: 1.18.

GGAAACACCAGAGAAGUCCTT against Etf1: the z-score is inactive: -0.56.

For the sequence GGCCAGAGACUGCCUGAUUTT against Acaa1b, the z-score is inactive: 0.225.

For the sequence GGAAGAAAACAUUUAGCCCTT against Mmd2, the z-score is inactive: 0.504.

Consider GCUGACCACUUCAAGGUUGTT against Lgals3, for which the z-score is inactive: 0.468.

For GGAGAACCUGAGCUAUGAUTT against Hsph1, the z-score was inactive: -0.54.

For the sequence GGUUCCAUCGAAAUUGACGTT against Plekhs1, the z-score was inactive: -0.579.

Turning to GCGUAGAAGACACUUAUAGTT against Zc3h14, the z-score was inactive: 1.47.

In the case of GGGAGAAGAAAAUGACUUUTT against Edaradd, the z-score was inactive: -0.0664.

As to GGAAAUCGAAUGAAUAACCTT against Klf12, the z-score is active: 3.45.

Consider AUGCUUUGAUCAGUAUGAATT against Vmn1r188, for which the z-score was active: -2.38.

On to GGAAAAAAAAAUCAGAAGGTT against Trp53bp2, for which the z-score is inactive: 0.302.

CCCGUAUGAGAAGUUCUAATT against Pttg1ip: the z-score was inactive: -0.394.
